In publication PMC9851907, “A single 2′-O-methylation of ribosomal RNA gates assembly of a functional ribosome” (Nature Structural & Molecular Biology, 2022):
Where two headings read alike, the source gives them in different places. Results are given in words; binding and its absence hold for the method and conditions named. Some binding calls cover weakened binding; strength is not graded here.

The chains behind the UniProt entries cited, without tags or fusion partners.
UniProt P53742: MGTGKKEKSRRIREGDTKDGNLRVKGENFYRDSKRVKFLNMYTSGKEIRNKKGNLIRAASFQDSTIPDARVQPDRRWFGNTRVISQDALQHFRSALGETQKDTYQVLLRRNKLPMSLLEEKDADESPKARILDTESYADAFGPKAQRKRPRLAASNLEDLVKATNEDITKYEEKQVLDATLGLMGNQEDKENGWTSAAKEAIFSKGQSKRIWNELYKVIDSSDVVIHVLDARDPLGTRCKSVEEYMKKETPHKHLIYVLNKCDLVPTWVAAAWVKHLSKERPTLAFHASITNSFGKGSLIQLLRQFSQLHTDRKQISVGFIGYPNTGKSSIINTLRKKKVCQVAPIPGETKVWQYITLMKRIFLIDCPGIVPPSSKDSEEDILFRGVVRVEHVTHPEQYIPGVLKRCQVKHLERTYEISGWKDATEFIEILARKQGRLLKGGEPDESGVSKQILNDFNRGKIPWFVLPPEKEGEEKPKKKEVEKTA
UniProt P0CX53: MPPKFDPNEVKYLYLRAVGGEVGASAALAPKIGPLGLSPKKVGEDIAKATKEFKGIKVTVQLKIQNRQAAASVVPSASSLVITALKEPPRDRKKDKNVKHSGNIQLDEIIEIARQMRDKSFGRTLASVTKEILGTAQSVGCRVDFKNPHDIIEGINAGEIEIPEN

B1: Rsa4 (protein, UniProt P25382 1-515)
chain: MSTLIPPPSKKQKKEAQLPREVAIIPKDLPNVSIKFQALDTGDNVGGALRVPGAISEKQLEELLNQLNGTSDDPVPYTFSCTIQGKKASDPVKTIDITDNLYSSLIKPGYNSTEDQITLLYTPRAVFKVKPVTRSSSAIAGHGSTILCSAFAPHTSSRMVTGAGDNTARIWDCDTQTPMHTLKGHYNWVLCVSWSPDGEVIATGSMDNTIRLWDPKSGQCLGDALRGHSKWITSLSWEPIHLVKPGSKPRLASSSKDGTIKIWDTVSRVCQYTMSGHTNSVSCVKWGGQGLLYSGSHDRTVRVWDINSQGRCINILKSHAHWVNHLSLSTDYALRIGAFDHTGKKPSTPEEAQKKALENYEKICKKNGNSEEMMVTASDDYTMFLWNPLKSTKPIARMTGHQKLVNHVAFSPDGRYIVSASFDNSIKLWDGRDGKFISTFRGHVASVYQVAWSSDCRLLVSCSKDTTLKVWDVRTRKLSVDLPGHKDEVYTVDWSVDGKRVCSGGKDKMVRLWTH
B2: Bud20 (protein, UniProt Q08004 1-166)
chain: MGRYSVKRYKTKRRTRDLDLIYNDLSTKESVQKLLNQPLDETKPGLGQHYCIHCAKYMETAIALKTHLKGKVHKRRVKELRGVPYTQEVSDAAAGYNLNKFLNRVQEITQSVGPEKESNEALLKEHLDSTLANVKTTEPTLPWAAADAEANTAAVTEAESTASAST
B3: Alb1 (protein, UniProt P47019 1-175)
chain: MPSKNSINRPKLTSNLHHKVHSLNKKRAQRERAGLLKPARSSVNSKSGEIKSVALDLYFQNKKNESQNSTAVTLQNASSSPASITTRTLSKKRAKKIERNLKYATQRKLLVDASAKLEDEMDIDLDGGKKVKENEKKSSLTLVKEALWSVIDDTASQGLIIENGQGTTLGGPFFP

What was measured:
[1] = biological target: Nog2-3xFLAG-6xHis (S. cerevisiae (endogenous locus in BY4741-derived strain AJY4427)) (UniProt P53742); experiment: cryo-EM structure; pre-60S particle with unmodified G2922, immunopurified through Nog2-3xFLAG from spb1-D52A cells; 2.9 Å overall; proteins are members of one ribonucleoprotein particle
[2] = biological target: Nog2-3xFLAG-6xHis (S. cerevisiae (endogenous locus in BY4741-derived strain AJY4427)) (UniProt P53742); experiment: as above; remark: listed apart in the source

Molecule	binding [1]	binding [2]
uL11 (from UniProt P0CX53 1-165)	binds	–
B1	–	binds
B2	–	binds
B3	–	binds
